# Laboratory results as given in patent publication US8003357B2, “Acidophilic enzymes” (Helmholtz-Zentrum Fuer Infektionsforschung GmbH, priority 2005, dated 2011).
# Test: Fe2+ content (ICP-MS) and Fe2+ dependence of activity, dialysis against EDTA
# Format: biochemical
# Conditions: for metal: protein, +EDTA: after dialysis against 1 mM EDTA containing buffer; for Fe content by ICP-MS: purified enzyme; for metal: protein, wild type: natural Fe2+ content, ± standard deviation, three analyses
# Experimental: The UV-VIS absorption spectra of purified acidic enzymes are shown in FIG. 4, wherein the uninterrupted lines refer to Fe^2+ containing enzymes and the interrupted lines refer to enzymes after dialysis against EDTA containing buffer. The λ-max values found at ca. 572 nm correlate with the Fe^2+ content, i.e. disappear after incubation with EDTA or DTT for 24 h. ICP-MS analysis confirmed the presence of 0.82±0.10 mol Fe in EstFA, 0.34±0.08 mol Fe in αGluFA, […] and 0.63±0.09 mol Fe in LigFA.
# In FIG. 5, relative activities of acidic enzymes with varying content of Fe^2+ are shown. For analysis, purified enzymes were incubated in 1 mM EDTA. At time intervals indicated, two aliquots were removed, one was used for hydrolysis of respective substrates, the other for ICP-MS analysis of Fe. For relative activities, activities before incubation with EDTA were used as 100% values.
# When further investigating the dependence of the acidic enzymes according to the invention on Fe^2+, relative activity for EstFA, αGluFA and LigFA were investigated for their natural Fe^2+ content, e.g. wild-type, which was set to 100%, in comparison to the activity after dialysis against a 1 mM EDTA containing buffer.
molecule,measurement,value
"EstFA: acidophilic, Fe2+ dependent esterase from Ferroplasma acidiphilum, 308 amino acids, Seq ID No. 6 (protein, listed as Ferroplasma acidiphilum, PEPTIDE (1)..(531) alpha Glu FA) INSLYILNHKVIIAVAVSAILIAMVFAGANIPYPGYNPTDHLISGKHPISNVSEVPKNFTLSGNVSNSNNNLPLSGTITVSNSTMSRTFNTSSNGSYNITLPQGNYSISSSIPGFQNYSSTINLDSNKTQNISTPPATTIGNGINQVPGSTNVSTLVPYLNNSIMSGGLNTDNITGTFDKNITIDLGKKLNNTQFVVLMKLDGAVYSYNWVTNGSGMAKLFLKYSGNYTMSAYTLYYNSSVIHYNTANNDTARFNMTERITFISSVILQSAVPLHDNSSVANSTLTVKGGVFSVPSLSVNSNLTGTYYKYEVPVGFYNFAYSNAHYVSKNFGVDVTGNSTVNKTIDPYLISINIRNNTGNTFNYTLGSTFYSGNGIHMATSGITTLLVFHDGKIVYDNTILLTSANPYYQLNLTISNKNLTFNGIETDSTNLSIVYSGNVTSNFYIASLEFENFSTSATNGMIIISGAASGSYPLDSGLYTYNMSQSLPTSAGNLTIKLVYDNDSKVSTDGRMTVEVYGYNISTLGNYITE",Metal ion required,Fe^2+
same,optimum Fe^2+ concentration,4.5 mM
same,"metal: protein, +EDTA",0.09 moles Fe^2+ per mole of enzyme
same,Fe content by ICP-MS,0.82±0.10 mol Fe
same,"metal: protein, wild type",1.03 ± 0.10 moles Fe^2+ per mole of enzyme
"αGluFA: acidic glucosidase from Ferroplasma acidiphilum, 531 amino acids, Seq ID No. 11 (protein, listed as Ferroplasma acidiphilum, CDS (1)..(1596) alpha glu FA, in Figure 11 designated sequence 5a) INSLYILNHKVIIAVAVSAILIAMVFAGANIPYPGYNPTDHLISGKHPISNVSEVPKNFTLSGNVSNSNNNLPLSGTITVSNSTMSRTFNTSSNGSYNITLPQGNYSISSSIPGFQNYSSTINLDSNKTQNISTPPATTIGNGINQVPGSTNVSTLVPYLNNSIMSGGLNTDNITGTFDKNITIDLGKKLNNTQFVVLMKLDGAVYSYNWVTNGSGMAKLFLKYSGNYTMSAYTLYYNSSVIHYNTANNDTARFNMTERITFISSVILQSAVPLHDNSSVANSTLTVKGGVFSVPSLSVNSNLTGTYYKYEVPVGFYNFAYSNAHYVSKNFGVDVTGNSTVNKTIDPYLISINIRNNTGNTFNYTLGSTFYSGNGIHMATSGITTLLVFHDGKIVYDNTILLTSANPYYQLNLTISNKNLTFNGIETDSTNLSIVYSGNVTSNFYIASLEFENFSTSATNGMIIISGAASGSYPLDSGLYTYNMSQSLPTSAGNLTIKLVYDNDSKVSTDGRMTVEVYGYNISTLGNYITE",Metal ion required,Fe^2+
same,"metal: protein, +EDTA",0.05 moles Fe^2+ per mole of enzyme
same,Fe content by ICP-MS,0.34±0.08 mol Fe
same,"metal: protein, wild type",1.04 ± 0.08 moles Fe^2+ per mole of enzyme
"LigFA: DNA ligase obtainable from Ferroplasma acidiphilum, 595 amino acids, Seq. ID No. 3, Fe2+ dependent (protein, listed as Ferroplasma acidiphilum, CDS (1)..(927) est FA, ID No. 3, Fe2+ dependent) MHLMNMVDPDFNSLIELSKSAGDMTKIEPAMLRNFLDESSLSSRGAPVEIKEIKDYKIKLDGRTLNARMYDDNNAKSAILYYHGGGFLFGNIETYDNYCRFLAKESGVKIISIEYRLAPEHKFPDAFNDAYDSFHYIAKKKKDFGIEGRIGVAGDSAGANLAAALCLKCRDGKTEMPAVQVLFYPSLAPDNFSRSFIEYSDNYVLTGKMIRYFGNMYSKNMQDLINPYFSPLVADDFSNLPPAIMVTNEYDPLRDPEETYVKKLREAGVRAVGIRGIGMIHGSATDFEVSDGARNIVKMVARIIPDYL",Metal ion required,Fe^2+
same,optimum Fe^2+ concentration,10 mM
same,"metal: protein, +EDTA",0.06 moles Fe^2+ per mole of enzyme
same,Fe content by ICP-MS,0.63±0.09 mol Fe
same,"metal: protein, wild type",2.03 ± 0.09 moles Fe^2+ per mole of enzyme
